Data from the supplement of paper PMC12823440, “Inhibitors supercharge kinase turnover through native proteolytic circuits” (Nature, 2025).
Counter-ions that a name gives are not always drawn. This is one part of the list. Hit calls seldom repeat between salt and free forms of one compound.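 Kinases were expressed as nanoluciferase fusions in K562 cells and luminescence was read every 4 h between 2 and 18 h as percent of control, DMSO set to 100% and a positive control to 0%. A time point counts as decreased when the signal drops significantly (2 sigma). The hit call is the authors' own, does not follow from the count of time points alone, and its rule is not shown.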

Sequences of proteins named here, by UniProt entry; tags and fusion partners are left off. A change or cut given only in a name is not applied to a line headed by its entry.
UniProt Q15131: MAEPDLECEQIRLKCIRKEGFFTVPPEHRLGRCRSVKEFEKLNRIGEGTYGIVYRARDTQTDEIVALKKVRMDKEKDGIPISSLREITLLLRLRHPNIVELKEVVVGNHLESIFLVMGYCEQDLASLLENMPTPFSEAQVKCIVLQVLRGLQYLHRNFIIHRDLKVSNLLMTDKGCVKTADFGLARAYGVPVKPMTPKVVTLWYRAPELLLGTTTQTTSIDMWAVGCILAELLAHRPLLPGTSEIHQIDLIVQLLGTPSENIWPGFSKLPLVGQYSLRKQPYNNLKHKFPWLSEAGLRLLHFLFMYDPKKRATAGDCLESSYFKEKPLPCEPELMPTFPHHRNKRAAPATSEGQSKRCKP

Biological target: CDK10 (UniProt Q15131)
Assay: number of time points (of 5) at which kinase-Nluc abundance scored as decreased, DMSO-normalised (count); higher = more persistent destabilization
Conditions: K562; 2-18 h

**Q.** For O=C1NC(=O)C(c2cn(-c3ccccc3)nc2-c2ccc(F)cc2)N1 (centres undefined) (10 µM), which “number of time points” value is on record?
**A.** The value was 0.

**Q.** How did the “number of time points” value turn out when O=[N+]([O-])c1ccc(Sc2cccc[n+]2[O-])c2nonc12 (2.5 µM) was run?
**A.** The value was 0.

**Q.** Which “number of time points” value does the source give for COc1nc(-c2ccnc(NC(=O)C3CC3)c2)sc1C(N)=O [GSK-3β inhibitor 2] (10 µM) here?
**A.** The value was 0.

**Q.** With CCN1/C(=C/C(C)=O)Sc2ccc(OC)cc21 (10 µM) as the compound, how does the “number of time points” value read?
**A.** Its value is 0.

**Q.** Nc1cccc(S(=O)(=O)N2CCCN(S(=O)(=O)c3ccc4c(c3)OCCO4)CC2)c1 (10 µM) was tested. Which “number of time points” value did it give?
**A.** The value was 0.

**Q.** Nc1ncc(-c2ccc(C(=O)N3CCNCC3)cc2)nc1-c1ccc(C(F)(F)F)cc1 (10 µM) was tested. Which “number of time points” value did it give?
**A.** The value was 0.

**Q.** How did the “number of time points” value turn out when CC[C@H](Nc1ncnc2[nH]cnc12)c1oc2ccccc2c(=O)c1-c1cccc(F)c1 [Tenalisib] (10 µM) was run?
**A.** The value was 0.

**Q.** CC(C)(O)[C@@H]1CC[C@](C)([C@H]2[C@@H](O)C[C@@]3(C)[C@@H]4C[C@H](O[C@@H]5O[C@H](CO)[C@@H](O)[C@H](O)[C@H]5O)[C@H]5C(C)(C)[C@@H](O[C@@H]6OC[C@@H](O)[C@H](O)[C@H]6O[C@@H]6O[C@H](CO)[C@@H](O)[C@H](O)[C@H]6O)CC[C@@]56C[C@@]46CC[C@]23C)O1 [Astragaloside VI] (10 µM) was tested. Which “number of time points” value did it give?
**A.** The value was 0.

**Q.** With CC(=O)Nc1nc2ccc(-c3cnc(C)c(NC(=O)OC4CCCCC4)c3)cc2s1 (10 µM) as the compound, how does the “number of time points” value read?
**A.** Its value is 0.

**Q.** With COc1ccccc1/C=C1\C(=O)Nc2ccccc21 (10 µM) as the compound, how does the “number of time points” value read?
**A.** Its value is 0.

**Q.** CC1(N)CCN(c2cnc3c(-c4cccc(Cl)c4Cl)[nH]nc3n2)CC1 (2.5 µM) was tested. Which “number of time points” value did it give?
**A.** The value was 0.

**Q.** How did the “number of time points” value turn out when CC(C)C[C@H](NC(=O)[C@H](CCCCN)NC(=O)[C@H](CO)NC(=O)[C@@H](N)CC(C)C)C(N)=O [LSKL, Inhibitor of Thrombospondin (TSP-1) (TFA)] (10 µM) was run?
**A.** Its value is 0.

**Q.** With CN1CC[C@H](c2c(O)cc(O)c3c(=O)cc(-c4ccc(C(F)(F)F)cc4Cl)oc23)[C@H]1CO [(2S,3R)-Voruciclib (hydrochloride)] (2.5 µM) as the compound, how does the “number of time points” value read?
**A.** The value was 0.

**Q.** Which “number of time points” value does the source give for C[C@H]1[C@H](OC(=O)CCC(=O)O)O[C@@H]2O[C@@]3(C)CC[C@H]4[C@H](C)CC[C@@H]1[C@@]24OO3 [Artesunate] (2.5 µM) here?
**A.** The value was 1.

**Q.** For c1ccc(-c2nn3c(c2-c2ccnc4cc(OCCN5CCOCC5)ccc24)CCC3)nc1 (10 µM), which “number of time points” value is on record?
**A.** The value was 0.

**Q.** With COc1cc(N2CCC(N(C)C)CC2)ccc1Nc1ncc(Cl)c(Nc2ccccc2P(C)(C)=O)n1 (2.5 µM) as the compound, how does the “number of time points” value read?
**A.** Its value is 0.

**Q.** Cc1ccc(-c2ncn(-c3ccc(Nc4nccc(-c5cccc(N6CCOCC6)c5)n4)cc3)n2)cn1 (10 µM) was tested. Which “number of time points” value did it give?
**A.** The value was 0.

**Q.** With CC[C@@H]1[C@H](F)C(=O)N[C@@H]1COc1nccc2cc(C(N)=O)c(OC)cc12 (10 µM) as the compound, how does the “number of time points” value read?
**A.** The value was 0.

**Q.** With O=C1NC(=O)/C(=C/c2ccc(-c3ccc(F)cc3O)o2)S1 (10 µM) as the compound, how does the “number of time points” value read?
**A.** Its value is 0.

**Q.** Which “number of time points” value does the source give for Cc1cc(Nc2cc(CN3CCOCC3)c3nc(C)c(Cc4ccc(Cl)cc4F)n3n2)n[nH]1 [Gandotinib] (2.5 µM) here?
**A.** Its value is 0.

**Q.** CN(C)C(=O)c1ccc(S(=O)(=O)c2ccc(NC(=O)[C@@](C)(O)C(F)(F)F)c(Cl)c2)cc1 (10 µM) was tested. Which “number of time points” value did it give?
**A.** The value was 0.

**Q.** Which “number of time points” value does the source give for CCc1cccc(CC)c1NC(=O)c1nn(C)c2c1CCc1cnc(Nc3ccc(C(=O)NC4CCN(C)CC4)cc3OC(F)(F)F)nc1-2 (2 µM) here?
**A.** The value was 0.

**Q.** O=C(Nc1ccc(Cl)cc1)C1CCCN(C(=O)c2cccc(-c3ccco3)c2)C1 (centres undefined) (2.5 µM) was tested. Which “number of time points” value did it give?
**A.** Its value is 0.

**Q.** With CN(C)Cc1cccc(N=C(c2ccccc2)c2c(O)[nH]c3cc(C(=O)N(C)C)ccc23)c1 (10 µM) as the compound, how does the “number of time points” value read?
**A.** Its value is 0.

**Q.** OCCN(CCO)c1ccc(C(c2ccc(Cl)cc2)c2ccc(N(CCO)CCO)cc2)cc1 (10 µM) was tested. Which “number of time points” value did it give?
**A.** Its value is 2.

**Q.** For CCOc1ccccc1C=C1C(=O)Nc2ccccc21 (10 µM), which “number of time points” value is on record?
**A.** Its value is 0.

**Q.** With COc1ncc(Nc2ncc([C@@H](C)N3CCN(S(C)(=O)=O)CC3)cc2-c2nc(C)nc(N)n2)cc1F (10 µM) as the compound, how does the “number of time points” value read?
**A.** The value was 0.

**Q.** With O=C(CO)N1CCC(c2n[nH]c(-c3ccc(Cl)cc3)c2-c2ccncn2)CC1 (10 µM) as the compound, how does the “number of time points” value read?
**A.** Its value is 0.

**Q.** Cn1ncc(Cl)c1-c1cc(C(=O)N[C@H](CN)Cc2ccc(F)c(F)c2)sc1Cl (10 µM) was tested. Which “number of time points” value did it give?
**A.** The value was 0.

**Q.** How did the “number of time points” value turn out when O=c1ccc2ccc(O)c(O)c2o1 [Daphnetin] (10 µM) was run?
**A.** Its value is 0.

**Q.** Which “number of time points” value does the source give for O=C(Nc1ccc(Cl)c(Cl)c1)Nc1ccc2nnsc2c1 (10 µM) here?
**A.** The value was 0.

**Q.** O=C(O)c1cc(O)c2c(c1)[C@@H]([C@H]1c3cc(C(=O)O)cc(O)c3C(=O)c3c(O[C@@H]4O[C@H](CO)[C@@H](O)[C@H](O)[C@H]4O)cccc31)c1cccc(O[C@@H]3O[C@H](CO)[C@@H](O)[C@H](O)[C@H]3O)c1C2=O [Sennoside B] (2.5 µM) was tested. Which “number of time points” value did it give?
**A.** The value was 0.

**Q.** With O=c1nc(N2CCOCC2)oc2c(-c3cccc4c3sc3ccccc34)cccc12 (10 µM) as the compound, how does the “number of time points” value read?
**A.** Its value is 0.

**Q.** How did the “number of time points” value turn out when O=C(Nc1cccc(-c2nncn2C2CC2)c1)c1cc(-n2cnc(C3CC3)c2)ccn1 (10 µM) was run?
**A.** Its value is 0.

**Q.** CSc1ccc(CN2CCCC(Nc3ccc4[nH]ncc4c3)C2)cc1 (centres undefined) [Rho-Kinase-IN-1] (10 µM) was tested. Which “number of time points” value did it give?
**A.** The value was 0.

**Q.** Which “number of time points” value does the source give for Oc1ccccc1C(=S)N1CCCC1 (10 µM) here?
**A.** Its value is 0.

**Q.** COC(=O)N[C@@H](C)CNc1nccc(-c2cn(C(C)C)nc2-c2cc(Cl)cc(NS(C)(=O)=O)c2F)n1 [Encorafenib] (10 µM) was tested. Which “number of time points” value did it give?
**A.** The value was 0.

**Q.** Which “number of time points” value does the source give for C=CS(=O)(=O)c1ccc(Nc2nc(OCC3CCCCC3)c3[nH]cnc3n2)cc1 (2.5 µM) here?
**A.** Its value is 0.

**Q.** With O=c1[nH]ccc2cc(OC3CCNCC3)ccc12 (10 µM) as the compound, how does the “number of time points” value read?
**A.** The value was 0.
